The values that follow come from PMC12380211.

Sequences of proteins named here, by UniProt entry; tags and fusion partners are left off. Residues count along the entry.
UniProt P13473, residues 29-410: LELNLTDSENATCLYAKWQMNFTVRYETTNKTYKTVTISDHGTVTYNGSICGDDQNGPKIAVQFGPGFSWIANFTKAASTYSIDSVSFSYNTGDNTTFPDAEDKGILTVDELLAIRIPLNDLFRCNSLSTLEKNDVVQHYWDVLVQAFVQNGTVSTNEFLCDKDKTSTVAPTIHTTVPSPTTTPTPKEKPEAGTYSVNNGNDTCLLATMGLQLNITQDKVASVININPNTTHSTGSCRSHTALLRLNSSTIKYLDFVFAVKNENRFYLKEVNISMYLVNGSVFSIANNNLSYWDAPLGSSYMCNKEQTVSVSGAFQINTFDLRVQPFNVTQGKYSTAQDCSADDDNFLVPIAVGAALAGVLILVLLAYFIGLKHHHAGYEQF

No constants are given. Whether binding was seen depends on the method and setting. In cells and extracts the contact can be indirect. Some results given as binding are weak or reduced against the parent protein; the word gives no strength.

In this assay the target is lysosome-associated membrane protein type 2A (LAMP2A) (human (endogenous in HaCaT)) (UniProt P13473). As to the kind of experiment: co-IP; HaCaT cell lysate (IP Cell Lysis Solution), cells with or without AR7 (20.0 uM); primary antibody on protein G agarose overnight at 4 C (anti-LAMP2A is the antibody listed for CO-IP), five washes, Western blot; rabbit IgG as negative control. For orientation: In western blotting, separated proteins are transferred to a membrane and probed.

B1: toll-like receptor 7 (TLR7) (receptor, UniProt Q9NYK1 27-1049)
chain: ARWFPKTLPCDVTLDVPKNHVIVDCTDKHLTEIPGGIPTNTTNLTLTINHIPDISPASFHRLDHLVEIDFRCNCVPIPLGSKNNMCIKRLQIKPRSFSGLTYLKSLYLDGNQLLEIPQGLPPSLQLLSLEANNIFSIRKENLTELANIEILYLGQNCYYRNPCYVSYSIEKDAFLNLTKLKVLSLKDNNVTAVPTVLPSTLTELYLYNNMIAKIQEDDFNNLNQLQILDLSGNCPRCYNAPFPCAPCKNNSPLQIPVNAFDALTELKVLRLHSNSLQHVPPRWFKNINKLQELDLSQNFLAKEIGDAKFLHFLPSLIQLDLSFNFELQVYRASMNLSQAFSSLKSLKILRIRGYVFKELKSFNLSPLHNLQNLEVLDLGTNFIKIANLSMFKQFKRLKVIDLSVNKISPSGDSSEVGFCSNARTSVESYEPQVLEQLHYFRYDKYARSCRFKNKEASFMSVNESCYKYGQTLDLSKNSIFFVKSSDFQHLSFLKCLNLSGNLISQTLNGSEFQPLAELRYLDFSNNRLDLLHSTAFEELHKLEVLDISSNSHYFQSEGITHMLNFTKNLKVLQKLMMNDNDISSSTSRTMESESLRTLEFRGNHLDVLWREGDNRYLQLFKNLLKLEELDISKNSLSFLPSGVFDGMPPNLKNLSLAKNGLKSFSWKKLQCLKNLETLDLSHNQLTTVPERLSNCSRSLKNLILKNNQIRSLTKYFLQDAFQLRYLDLSSNKIQMIQKTSFPENVLNNLKMLLLHHNRFLCTCDAVWFVWWVNHTEVTIPYLATDVTCVGPGAHKGQSVISLDLYTCELDLTNLILFSLSISVSLFLMVMMTASHLYFWDVWYIYHFCKAKIKGYQRLISPDCCYDAFIVYDTKDPAVTEWVLAELVAKLEDPREKHFNLCLEERDWLPGQPVLENLSQSIQLSKKTVFVMTDKYAKTENFKIAFYLSHQRLMDEKVDVIILIFLEKPFQKSKFLQLRKRLCGSSVLEWPTNPQAHPYFWQCLKNALATDNHVAYSQVFKETV
Turning to B1, the binding result is “binds”.
